Results reported in patent US20240174697A1, “PH-ACTIVABLE FLUORESCENT PROBES FOR TARGETING CELL ORGANELLES” (Purdue Research Foundation, priority 2021, published 2024).
Some results were stated once for a whole list of compounds, not compound by compound. At least one structure is not confirmed: it was looked up by name or label, or the drawing left a doubt.

Test system: BV2 microglia
Assay: LDH cytotoxicity assay on BV2 microglia
Assay type: cell-based, mouse
Protocol: The dried fluorescent probes powders were resuspended in cell grade DMSO to prepare 5 mM stock solutions. This stock was used to make a 1, 5, or 10 μM dilution of the probe in cell culture media. The diluted probe solutions were filtered through 0.22 µm filters before adding to the cells.
The cytotoxicity of the fluorescent probes was determined using the Invitrogen™ CyQUANT™ LDH Cytotoxicity Assay kit which measures the release of Lactate dehydrogenase (LDH) from the dead and dying cells. The assay was performed per the manufacturer's protocol. Briefly, BV2 cells (5000 cells/100 μL/well) were seeded in a 96 well plate and cultured for 24 hours at 37° C. in a 5% CO2 incubator. After 24 hours, the media was removed, and the cells were treated with 1, 5, or 10 μM of the probes for 2 or 24 hours of incubation. Three additional wells were treated with the given lysis buffer for 45 minutes (positive control). After the corresponding incubation period, the total LDH release was measured using a fluorescent plate reader. The cells without any probe treatment correspond to spontaneous LDH release and were taken as negative control and the cells treated with the lysis buffer correspond to maximum LDH release. The percentage cytotoxicity of the probes was determined as follows: […]

[1] = 24 hours, all the tested doses (1, 5, 10 μM)

In the case of `CCOC(=O)C1=C(C)C2=C(c3ccc(NC(=O)CNCCN4CCOCC4)cc3)c3c(C)c(C(=O)OCC)c(C)n3[B-](F)(F)[N+]2=C1C` [LysoShine 2, Diethyl 5,5-difluoro-1,3,7,9-tetramethyl-10-(4-(2-((2-morpholinoethyl)amino)acetamido)phenyl)-5H-4λ^4, 5λ^4-dipyrrolo[1,2-c:2′,1′-f][1,3,2]diaza-borinine-2,8-dicarboxylate], the “cytotoxicity (LDH release)” value [1] is reported as “less than 10%”.
For `CCOC(=O)C1=C(C)C2=C(c3ccc(NC(=O)CN(CC)CC)cc3)c3c(C)c(C(=O)OCC)c(C)n3[B-](F)(F)[N+]2=C1C` [LysoShine 1, Diethyl 10-(4-(2-(diethylamino)acetamido)phenyl)-5,5-difluoro-1,3,7,9-tetramethyl-5H-4λ^4, 5λ^4-dipyrrolo[1,2-c:2′, 1′-f][1,3,2]diazaborinine-2,8-dicarboxylate], the “cytotoxicity (LDH release)” value [1] was “less than 10%”.
With `CCOC(=O)C1=C(C)C2=C(c3ccc(NC(=O)C[P+](c4ccccc4)(c4ccccc4)c4ccccc4)cc3)c3c(C)c(C(=O)OCC)c(C)n3[B-](F)(F)[N+]2=C1C.[Br-]` [MitoShine, (2-((4-(2,8-bis(ethoxycarbonyl)-5,5-difluoro-1,3,7,9-tetramethyl-5H-414,514-dipyrrolo[1,2-c:2′, 1′-f][1,3,2]diazaborinin-10-yl)phenyl)amino)-2-oxoethyl)triphenylphosphonium bromide] the “cytotoxicity (LDH release)” value (2 hour, 10 μM) was “less than 10%”.
